Here are results for two molecules from patent publication CN113667014A.

Amino acid sequences for entries named in this document (tags omitted). Residues count along the entry.
UniProt P02769, residues 25-607: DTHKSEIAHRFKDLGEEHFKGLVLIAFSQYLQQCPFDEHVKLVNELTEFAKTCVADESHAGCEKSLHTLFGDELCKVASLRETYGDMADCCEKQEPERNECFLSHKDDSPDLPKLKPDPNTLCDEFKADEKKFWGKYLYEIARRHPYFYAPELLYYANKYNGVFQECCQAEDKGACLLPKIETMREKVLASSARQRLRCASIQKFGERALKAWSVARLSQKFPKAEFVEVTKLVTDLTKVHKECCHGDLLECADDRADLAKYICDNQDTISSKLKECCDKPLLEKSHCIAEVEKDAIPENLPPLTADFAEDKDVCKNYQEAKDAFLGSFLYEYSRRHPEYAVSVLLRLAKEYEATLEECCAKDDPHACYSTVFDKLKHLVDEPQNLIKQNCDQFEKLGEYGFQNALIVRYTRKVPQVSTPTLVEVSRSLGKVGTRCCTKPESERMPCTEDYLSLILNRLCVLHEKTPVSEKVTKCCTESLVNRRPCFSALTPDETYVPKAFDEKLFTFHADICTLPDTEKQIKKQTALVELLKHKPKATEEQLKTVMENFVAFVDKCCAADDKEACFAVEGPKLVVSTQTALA

No constants are given. Whether binding was seen depends on the method and setting. Some results given as binding are weak or reduced against the parent protein; the word gives no strength. Where a sequence is shown, tags or fusion partners need not be part of it.

The target in assay [1] is 牛血清白蛋白(BSA) (牛 (bovine)) (UniProt P02769). The assay is described as follows: ELISA on coated BSA (2 ug/mL), nanobody from 2.5 ug/mL in 4-fold dilutions, HRP anti-human IgG secondary. In general terms: In an ELISA, binding on a coated surface is turned into a signal by an enzyme label.
For assay [2] the target is unchanged. The assay is described as follows: Western blot with the nanobody as primary antibody (Anti-VHH-HRP secondary); depletion of BSA from Vero culture supernatant with nanobody-coupled magnetic beads.

B1: 原核表达的抗BSA纳米抗体 Unique 3 (pET28a, GST标签, E. coli BL21(DE3)) (VHH, not shown: a dimerising Fc or GST)
VHH: QLQLVESGGGLVQAGGSLRLSCAASGRTFSSYAMGWFRQAPGKERELVAAISRRGGSTYYADSVKGRFTISRDNAKNTVYLQMNSLKPEDTAVYYCNAKSYGSTVRNYWGQGTQVTVSS
Turning to B1, the binding result with 牛血清白蛋白(BSA) (牛 (bovine)) [1] and with 牛血清白蛋白(BSA) (牛 (bovine)) [2] was “binds” in each case.

B2: 哺乳系统表达的抗BSA纳米抗体 Unique 3 (pcDNA3.1, 293F细胞) (VHH, not shown: large carriers)
VHH: B1 VHH
As to B2, the binding result in the assay with 牛血清白蛋白(BSA) (牛 (bovine)) [1] is given as “binds”.
